Test results reported in publication PMC3879332.
No constants are given. Whether binding was seen depends on the method and setting.

Key:
[1] = target: hTyrCtr R422Q, temperature-sensitive OCA1B mutant of the human tyrosinase intra-melanosomal domain (human) (UniProt P14679); test: SEC; gel filtration on a calibrated Superdex 75 10/30 HR column; Buffer B: 50 mM Tris-HCl, pH 7.2, 1 mM EDTA, 150 mM NaCl; room temperature; 0.5 ml/min; both purified
[2] = target: hTyrCtr R422W, temperature-sensitive OCA1B mutant of the human tyrosinase intra-melanosomal domain (human) (UniProt P14679); test: as above

Row | Binder | binding [1] | binding [2]
1 | hTyrCtr R422Q, temperature-sensitive OCA1B mutant of the human tyrosinase intra-melanosomal domain (domain or fragment, UniProt P14679 19-469, glycoprotein (sites not stated for this variant)) HFPRACVSSKNLMEKECCPPWSGDRSPCGQLSGRGSCQNILLSNAPLGPQFPFTGVDDRESWPSVFYNRTCQCSGNFMGFNCGNCKFGFWGPNCTERRLLVRRNIFDLSAPEKDKFFAYLTLAKHTISSDYVIPIGTYGQMKNGSTPMFNDINIYDLFVWMHYYVSMDALLGGSEIWRDIDFAHEAPAFLPWHRLFLLRWEQEIQKLTGDENFTIPYWDWRDAEKCDICTDEYMGGQHPTNPNLLSPASFFSSWQIVCSRLEEYNSHQSLCNGTPEGPLRRNPGNHDKSRTPRLPSSADVEFCLSLTQYESGSMDKAANFSFRNTLEGFASPLTGIADASQSSMHNALHIYMNGTMSQVQGSANDPIFLLHHAFVDSIFEQWLRRHRPLQEVYPEANAPIGHNQESYMVPFIPLYRNGDFFISSKDLGYDYSYLQDSDPDSFQDYIKSYLE | no binding | –
2 | hTyrCtr R422W, temperature-sensitive OCA1B mutant of the human tyrosinase intra-melanosomal domain (domain or fragment, UniProt P14679 19-469, glycoprotein (sites not stated for this variant)) HFPRACVSSKNLMEKECCPPWSGDRSPCGQLSGRGSCQNILLSNAPLGPQFPFTGVDDRESWPSVFYNRTCQCSGNFMGFNCGNCKFGFWGPNCTERRLLVRRNIFDLSAPEKDKFFAYLTLAKHTISSDYVIPIGTYGQMKNGSTPMFNDINIYDLFVWMHYYVSMDALLGGSEIWRDIDFAHEAPAFLPWHRLFLLRWEQEIQKLTGDENFTIPYWDWRDAEKCDICTDEYMGGQHPTNPNLLSPASFFSSWQIVCSRLEEYNSHQSLCNGTPEGPLRRNPGNHDKSRTPRLPSSADVEFCLSLTQYESGSMDKAANFSFRNTLEGFASPLTGIADASQSSMHNALHIYMNGTMSQVQGSANDPIFLLHHAFVDSIFEQWLRRHRPLQEVYPEANAPIGHNWESYMVPFIPLYRNGDFFISSKDLGYDYSYLQDSDPDSFQDYIKSYLE | – | no binding
